Test results taken from patent US20260083129A1, “PYRAZOLE AMIDE INSECTICIDES” (FMC CORPORATION, priority 2022, published 2026).
Some of these results come from one statement about several compounds together.

Tests used:
[1] = test system: Diamond Back Moth (Plutella xylostella L.); test: Test A: control of Diamond Back Moth on sprayed mustard plant; type: in vivo; conditions: assessed after six days, neonate larvae
[2] = test system: fall armyworm (Spodoptera frugiperda (J. E. Smith)); test: Test B: control of fall armyworm on sprayed corn (maize) plant; type: in vivo; conditions: assessed after 6 days, one-day-old larvae

Row | Compound | control efficacy: feeding damage ([1]; sprayed at 250 ppm) [%] | control efficacy: feeding damage ([1]; sprayed at 50 ppm) [%] | control efficacy: feeding damage ([2]; sprayed at 50 ppm) [%] | further results
1 | CC(c1c(C#N)cnn1-c1ccccn1)N(CC1CC1)C(=O)c1cc(F)cc(C(F)(F)F)c1 (centres unmarked) [Compound 2] | ≤ 20 | – | – | –
2 | CC(c1c(Br)cnn1-c1ccccn1)N(CC1CC1)C(=O)c1cc(Cl)cc(C(F)(F)F)c1 (centres unmarked) [Compound 3] | ≤ 20 | – | – | –
3 | CC(c1cc([N+](=O)[O-])nn1-c1ccc(Br)cn1)N(C)C(=O)c1cc(C(F)(F)F)cc(C(F)(F)F)c1 (centres unmarked) [Compound 9, N-[1-[2-(5-bromo-2-pyridyl)-5-nitro-pyrazol-3-yl]ethyl]-N-methyl-3,5-bis(trifluoromethyl)benzamide] | ≤ 20 | ≤ 20 | – | –
4 | CC(NC(=O)c1cc(Cl)cc(C(F)(F)F)c1)c1c(F)cnn1-c1ncccn1 (centres unmarked) [Compound 77] | – | ≤ 20 | – | –
5 | CC(NC(=O)c1cc(C(F)(F)F)cc(C(F)(F)F)c1)c1c(I)cnn1-c1ncccn1 (centres unmarked) [Compound 104] | ≤ 20 | ≤ 20 | – | –
6 | CC(c1c(C#N)cnn1-c1ccccn1)N(CC1CC1)C(=O)c1cc(Cl)cc(C(F)(F)F)c1 (centres unmarked) [Compound 1] | ≤ 20 | – | – | –
7 | CC(NC(=O)c1cc(Cl)cc(Cl)c1)c1c(C(F)(F)F)cnn1-c1ccc(C#N)cn1 (centres unmarked) [Compound 61] | – | ≤ 20 | ≤ 20 | control efficacy: feeding damage ([1]; sprayed at 10 ppm): ≤ 20%
8 | CC(c1c(S(C)(=O)=O)cnn1-c1cc(C(F)(F)F)ncn1)N(C)C(=O)c1cc(C(F)(F)F)cc(C(F)(F)F)c1 (centres unmarked) [Compound 125, N-methyl-N-[1-[4-methylsulfonyl-2-[6-(trifluoromethyl)pyrimidin-4-yl]pyrazol-3-yl]ethyl]-3,5-bis(trifluoromethyl)benzamide] | ≤ 20 | ≤ 20 | ≤ 20 | control efficacy: feeding damage ([2]; sprayed at 250 ppm): ≤ 20%
9 | CC(NC(=O)c1cc(C(F)(F)F)cc(C(F)(F)F)c1)c1c(C(F)(F)F)cnn1-c1ccc(C#N)cn1 (centres unmarked) [Compound 50] | – | ≤ 20 | ≤ 20 | control efficacy: feeding damage ([1]; sprayed at 10 ppm): ≤ 20%
10 | CC(c1c([N+](=O)[O-])cnn1-c1cc(C(N)=O)ncn1)N(C)C(=O)c1cc(C(F)(F)F)cc(C(F)(F)F)c1 (centres unmarked) [Compound 52] | ≤ 20 | – | ≤ 20 | control efficacy: feeding damage ([2]; sprayed at 250 ppm): ≤ 20%
11 | CNc1nn(-c2ccc(C#N)cn2)c(C(C)N(C)C(=O)c2cc(C(F)(F)F)cc(C(F)(F)F)c2)c1C#N (centres unmarked) [Compound 12, N-[1-[4-cyano-1-(5-cyano-2-pyridinyl)-3-(methylamino)-1H-pyrazol-5-yl]ethyl]-N-methyl-3,5-bis(trifluoromethyl)benzamide] | ≤ 20 | ≤ 20 | ≤ 20 | control efficacy: feeding damage ([1]; sprayed at 2 ppm): ≤ 20%; control efficacy: feeding damage ([1]; sprayed at 10 ppm): ≤ 20%; control efficacy: feeding damage ([2]; sprayed at 10 ppm): ≤ 20%; control efficacy: feeding damage ([2]; sprayed at 250 ppm): ≤ 20%
12 | CC(c1c(Br)cnn1-c1ccc(Br)cn1)N(C)C(=O)c1cc(Cl)cc(C(F)(F)F)c1 (centres unmarked) [Compound 43] | ≤ 20 | – | – | –
13 | CC(c1c(S(C)(=O)=O)cnn1-c1ncccn1)N(C)C(=O)c1cc(C(F)(F)F)cc(C(F)(F)F)c1 (centres unmarked) [Compound 70] | – | – | – | control efficacy: feeding damage ([2]; sprayed at 250 ppm): ≤ 20%
14 | CC(c1cc(Cl)nn1-c1ccc(C#N)cn1)N(C)C(=O)c1cc(C(F)(F)F)cc(C(F)(F)F)c1 (centres unmarked) [Compound 48] | ≤ 20 | – | – | –
15 | CC(NC(=O)c1cc(C(F)(F)F)cc(C(F)(F)F)c1)c1c(F)cnn1-c1ncccn1 (centres unmarked) [Compound 79] | – | ≤ 20 | – | control efficacy: feeding damage ([1]; sprayed at 10 ppm): ≤ 20%
16 | CC(c1c(C#N)cnn1-c1ccc(C#N)cn1)N(C)C(=O)c1cc(OS(=O)(=O)C(F)(F)F)cc(C(F)(F)F)c1 (centres unmarked) [Compound 46] | ≤ 20 | ≤ 20 | ≤ 20 | control efficacy: feeding damage ([2]; sprayed at 250 ppm): ≤ 20%
17 | COc1cc(C(C)NC(=O)c2cc(C(F)(F)F)cc(C(F)(F)F)c2)n(-c2ncccn2)n1 (centres unmarked) [Compound 80, N-[1-(5-methoxy-2-pyrimidin-2-yl-pyrazol-3-yl)ethyl]-3,5-bis(trifluoromethyl)benzamide] | – | ≤ 20 | – | control efficacy: feeding damage ([1]; sprayed at 10 ppm): ≤ 20%
18 | CC(c1c([N+](=O)[O-])cnn1-c1ccc(CN2CCOCC2)cn1)N(C)C(=O)c1cc(C(F)(F)F)cc(C(F)(F)F)c1 (centres unmarked) [Compound 55] | ≤ 20 | – | – | –
19 | CC(c1c([N+](=O)[O-])cnn1-c1cc(C(N)=O)ncn1)N(C)C(=O)c1cc(C(F)(F)F)cc(C(F)(F)F)c1 (centres unmarked) [Compound 114] | – | ≤ 20 | – | –
20 | CC(c1c(C#N)cnn1-c1ccc(C#N)cn1)N(C)C(=O)c1cc(Cl)cc(C(F)(F)F)c1 (centres unmarked) [Compound 41, 3-chloro-N-(1-(4-cyano-1-(5-cyanopyridin-2-yl)-1H-pyrazol-5-yl)ethyl)-N-methyl-5-(trifluoromethyl)benzamide] | ≤ 20 | ≤ 20 | ≤ 20 | control efficacy: feeding damage ([1]; sprayed at 10 ppm): ≤ 20%; control efficacy: feeding damage ([2]; sprayed at 10 ppm): ≤ 20%
21 | CC(c1c(C#N)c(N(C)C)nn1-c1ccc(C#N)cn1)N(C)C(=O)c1cc(C(F)(F)F)cc(C(F)(F)F)c1 (centres unmarked) [Compound 13, N-[1-[4-cyano-2-(5-cyano-2-pyridyl)-5-(dimethylamino)pyrazol-3-yl]ethyl]-N-methyl-3,5-bis(trifluoromethyl)benzamide] | ≤ 20 | – | – | –
22 | CC(NC(=O)c1cc(C(F)(F)F)cc(C(F)(F)F)c1)c1c([N+](=O)[O-])cnn1-c1ncccn1 (centres unmarked) [Compound 113, N-(1-(4-nitro-1-(pyrimidin-2-yl)-1H-pyrazol-5-yl)ethyl)-3,5-bis(trifluoromethyl)benzamide] | ≤ 20 | ≤ 20 | – | –
23 | CC(c1c(Br)cnn1-c1ccccn1)N(CC1CC1)C(=O)c1cc(C(F)(F)F)cc(C(F)(F)F)c1 (centres unmarked) [Compound 5, N-[1-[4-bromo-2-(2-pyridyl)pyrazol-3-yl]ethyl]-N-(cyclopropylmethyl)-3,5-bis(trifluoromethyl)benzamide] | ≤ 20 | – | – | –
24 | CC(c1c(S(C)(=O)=O)cnn1-c1cnccn1)N(C)C(=O)c1cc(C(F)(F)F)cc(C(F)(F)F)c1 (centres unmarked) [Compound 109, N-methyl-N-(1-(4-(methylsulfonyl)-1-(pyrazin-2-yl)-1H-pyrazol-5-yl)ethyl)-3,5-bis(trifluoromethyl)benzamide] | ≤ 20 | ≤ 20 | – | control efficacy: feeding damage ([2]; sprayed at 250 ppm): ≤ 20%
25 | CC(c1c(C#N)c(N)nn1-c1ccc(C#N)cn1)N(C)C(=O)c1cc(C(F)(F)F)cc(C(F)(F)F)c1 (centres unmarked) [Compound 14, N-[1-[3-amino-4-cyano-1-(5-cyano-2pyridinyl)-1H-pyrazol-5-yl]ethyl]-N-methyl-3,5 bis(trifluoromethyl) benzamide] | ≤ 20 | ≤ 20 | ≤ 20 | control efficacy: feeding damage ([1]; sprayed at 2 ppm): ≤ 20%; control efficacy: feeding damage ([1]; sprayed at 10 ppm): ≤ 20%; control efficacy: feeding damage ([2]; sprayed at 10 ppm): ≤ 20%; control efficacy: feeding damage ([2]; sprayed at 250 ppm): ≤ 20%
26 | CC(NC(=O)c1cc(C(F)(F)F)cc(C(F)(F)F)c1)c1ccnn1-c1ncccn1 (centres unmarked) [Compound 105] | ≤ 20 | ≤ 20 | – | –
